PubChem BioAssay AID1224828 | NIAID – 2016
The deposit covers about 17,000 reagents; below is an unselected part. 762 of them (4.5%) count as active. 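Active calls include both raised and lowered p65 entry, mostly lowered; wells with fewer than 50 cells lack a z-score.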 The raw values are shown without normalisation. Unmarked entries are inactive. Reagents against one gene are numbered here.

Test: 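Knock-downs that increase or decrease LPS-induced p65 nuclear translocation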 (primary screen)
Cells: mouse RAW264.7 G9 macrophage reporter cells (GFP-p65, Tnf promoter-mCherry)
Reagent: siRNA pool against mouse genes, 100 nM
Time to read-out: 2 days siRNA transfection, then 40 min LPS before fixation
Conditions: LPS (Salmonella minnesota R595) at 10 ng/ml
Detection: 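Imaged p65 nuclear translocation ratio, normalised to the plate median, converted to robust z-scores and averaged across two replicates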
Scale: p65 translocation robust z-score: higher = more nuclear NF-kappaB p65 after LPS than the plate median; nuclear/cytoplasmic p65 ratio: higher = more nuclear NF-kappaB p65
Hit rule: 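Called active when z exceeds 3.3 or falls under -1.56 (median of Tlr4 controls), giving activity score of at least 50; no calls for control wells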
Calls: active = hit (p65 shift raised or lowered); inactive = no clear change

gene,reagent,p65 translocation robust z-score,"nuclear/cytoplasmic p65 ratio, rep 1","nuclear/cytoplasmic p65 ratio, rep 2",low cell count flag
Erfe (GeneID 227358),1,,1.03,1.16,fewer than 50 cells per well; well left out of scoring
Vmn1r4 (GeneID 171194),1,0.21,1.47,1.2,enough cells to score
Krt23 (GeneID 94179),1,2.51,1.97,1.72,enough cells to score
Rab33b (GeneID 19338),1,0.14,1.5,1.57,enough cells to score
Mycs (GeneID 17870),1,0.55,1.86,1.68,enough cells to score
Smyd2 (GeneID 226830),1,0.6,1.61,1.66,enough cells to score
Notch1 (GeneID 18128),1,-0.15,1.51,1.31,enough cells to score
Dmpk (GeneID 13400),1,1.13,1.89,1.51,enough cells to score
Lipi (GeneID 320355),1,-0.46,1.48,1.39,enough cells to score
Krcc1 (GeneID 57896),1,,1.31,1.27,fewer than 50 cells per well; well left out of scoring
Nup54 (GeneID 269113),1,,1.31,1.17,fewer than 50 cells per well; well left out of scoring
Kctd13 (GeneID 233877),1,1.13,1.61,1.67,enough cells to score
Speer4b (GeneID 73526),1,0.36,1.5,1.24,enough cells to score
Tifa (GeneID 211550),1,0.66,1.47,1.25,enough cells to score
Ephx1 (GeneID 13849),1,-0.85,1.42,1.25,enough cells to score
Adam32 (GeneID 353188),1,-0.57,1.51,1.56,enough cells to score
Dap (GeneID 223453),1,-0.87,1.44,1.18,enough cells to score
Fam32a (GeneID 67922),1,,1.29,1.62,fewer than 50 cells per well; well left out of scoring
Pkd1l3 (GeneID 244646),1,0.08,1.44,1.18,enough cells to score
Or1j12 (GeneID 258953),1,-1.45,1.47,1.17,enough cells to score
Vmn1r54 (GeneID 113851),1,,0,1.28,fewer than 50 cells per well; well left out of scoring
Tnfrsf23 (GeneID 79201),1,0.1,1.38,1.11,enough cells to score
Pax3 (GeneID 18505),1,-0.19,1.51,1.31,enough cells to score
Dennd1c (GeneID 70785),1,-1.85 (active),1.07,1.04,enough cells to score
Slc40a1 (GeneID 53945),1,-0.29,1.47,1.54,enough cells to score
Cd55b (GeneID 13137),1,0.67,1.68,1.63,enough cells to score
Cldn4 (GeneID 12740),1,0.11,1.52,1.36,enough cells to score
Cetn3 (GeneID 12626),1,1.36,1.72,1.49,enough cells to score
Mettl8 (GeneID 228019),1,0.31,1.63,1.89,enough cells to score
Kifap3 (GeneID 16579),1,-0.77,1.38,1.28,enough cells to score
Omp (GeneID 18378),1,0.88,1.63,1.29,enough cells to score
Olfm2 (GeneID 244723),1,,1.55,1.99,fewer than 50 cells per well; well left out of scoring
Vmn1r70 (GeneID 171262),1,-0.57,1.45,1.49,enough cells to score
Med21 (GeneID 108098),1,,1.31,1.36,fewer than 50 cells per well; well left out of scoring
Crtam (GeneID 54698),1,0.09,1.45,1.42,enough cells to score
Fam3b (GeneID 52793),1,-0.36,1.36,1.23,enough cells to score
Pomc (GeneID 18976),1,-1.15,1.33,1.27,enough cells to score
Slc25a17 (GeneID 20524),1,0.29,1.43,1.3,enough cells to score
Slc25a17 (GeneID 20524),2,-0.2,1.28,1.2,enough cells to score
Mark2 (GeneID 13728),1,-0.35,1.56,1.39,enough cells to score
Or51m1 (GeneID 258961),1,0.14,1.43,1.31,enough cells to score
Tax1bp3 (GeneID 76281),1,0.54,1.43,1.27,enough cells to score
Cnn1 (GeneID 12797),1,-0.21,1.57,1.74,enough cells to score
Cul4a (GeneID 99375),1,-0.04,1.51,1.34,enough cells to score
1700029F12Rik (GeneID 66479),1,,1.47,1.37,fewer than 50 cells per well; well left out of scoring
Proser3 (GeneID 333193),1,0.47,1.78,1.63,enough cells to score
Klhl1 (GeneID 93688),1,-0.75,1.43,1.31,enough cells to score
Sec14l4 (GeneID 103655),1,1.19,1.54,1.39,enough cells to score
Magea8 (GeneID 17144),1,0.66,1.81,1.65,enough cells to score
Rai2 (GeneID 24004),1,0.33,1.57,1.55,enough cells to score
Aspn (GeneID 66695),1,-0.06,1.41,1.57,enough cells to score
Clk3 (GeneID 102414),1,-0.88,1.51,1.31,enough cells to score
AI931714,1,0.27,1.52,1.86,enough cells to score
Gpr101 (GeneID 245424),1,-0.25,1.49,1.53,enough cells to score
Pwp1 (GeneID 103136),1,-0.19,1.32,1.3,enough cells to score
Ambn (GeneID 11698),1,-0.02,1.65,1.63,enough cells to score
Otoa (GeneID 246190),1,1.68,1.69,1.62,enough cells to score
Napa (GeneID 108124),1,0.73,1.8,1.79,enough cells to score
Rassf2 (GeneID 215653),1,0.07,1.54,1.34,enough cells to score

Entries listed so far marked active:
gene,reagent,p65 translocation robust z-score,"nuclear/cytoplasmic p65 ratio, rep 1","nuclear/cytoplasmic p65 ratio, rep 2",low cell count flag
Dennd1c (GeneID 70785),1,-1.85 (active),1.07,1.04,enough cells to score
